The record followed here is paper PMC12221005.

Chains of the proteins cited; added tags and fusions are not shown.
UniProt Q14145: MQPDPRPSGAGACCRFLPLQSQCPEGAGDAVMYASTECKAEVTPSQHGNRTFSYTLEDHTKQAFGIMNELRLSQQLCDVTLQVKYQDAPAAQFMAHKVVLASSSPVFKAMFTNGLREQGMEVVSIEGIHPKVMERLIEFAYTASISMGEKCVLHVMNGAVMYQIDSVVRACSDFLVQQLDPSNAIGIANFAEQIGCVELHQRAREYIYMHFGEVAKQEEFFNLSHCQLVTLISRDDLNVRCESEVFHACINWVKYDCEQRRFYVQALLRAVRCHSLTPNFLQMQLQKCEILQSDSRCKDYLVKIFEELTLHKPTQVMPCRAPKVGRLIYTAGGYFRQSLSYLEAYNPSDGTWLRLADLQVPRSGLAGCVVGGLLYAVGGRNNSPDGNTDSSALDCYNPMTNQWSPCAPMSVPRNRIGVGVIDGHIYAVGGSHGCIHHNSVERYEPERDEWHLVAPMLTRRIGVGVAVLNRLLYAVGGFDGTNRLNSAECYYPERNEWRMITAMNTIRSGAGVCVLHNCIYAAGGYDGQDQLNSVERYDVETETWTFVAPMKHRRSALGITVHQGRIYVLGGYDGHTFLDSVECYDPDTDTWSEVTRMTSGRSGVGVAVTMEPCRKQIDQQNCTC
UniProt Q16665: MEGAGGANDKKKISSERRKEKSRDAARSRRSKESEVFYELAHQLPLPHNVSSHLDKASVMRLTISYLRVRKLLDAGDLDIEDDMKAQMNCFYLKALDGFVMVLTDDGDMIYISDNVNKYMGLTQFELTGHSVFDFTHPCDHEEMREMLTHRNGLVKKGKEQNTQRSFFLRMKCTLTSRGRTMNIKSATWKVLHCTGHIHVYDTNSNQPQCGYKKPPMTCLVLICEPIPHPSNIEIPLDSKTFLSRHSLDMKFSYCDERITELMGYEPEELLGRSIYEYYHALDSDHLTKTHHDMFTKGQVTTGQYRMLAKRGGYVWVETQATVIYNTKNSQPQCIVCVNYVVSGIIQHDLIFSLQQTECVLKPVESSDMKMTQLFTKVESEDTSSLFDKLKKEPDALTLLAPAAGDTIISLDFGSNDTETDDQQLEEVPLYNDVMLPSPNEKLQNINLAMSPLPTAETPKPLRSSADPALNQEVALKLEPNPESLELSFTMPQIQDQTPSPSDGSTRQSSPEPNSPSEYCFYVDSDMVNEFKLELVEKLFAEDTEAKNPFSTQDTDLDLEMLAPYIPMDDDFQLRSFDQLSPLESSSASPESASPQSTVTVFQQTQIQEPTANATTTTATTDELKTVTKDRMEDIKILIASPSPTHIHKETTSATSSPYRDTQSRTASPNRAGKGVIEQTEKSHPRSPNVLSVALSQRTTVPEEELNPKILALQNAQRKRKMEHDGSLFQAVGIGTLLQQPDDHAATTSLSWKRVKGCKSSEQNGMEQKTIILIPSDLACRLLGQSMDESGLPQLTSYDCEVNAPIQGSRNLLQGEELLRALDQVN

Assay [1] deals with Kelch-like ECH-associated protein 1 (Keap1) (human (endogenous in HPMECs)) (UniProt Q14145). The assay can be described thus: co-IP; HPMEC lysate in IP lysis buffer; PLZF and Keap1 antibodies on protein A/G Sepharose, incubated overnight at 4°C; beads washed three times with lysis buffer; immunoblot. For orientation: In western blotting, separated proteins are transferred to a membrane and probed.

Assay [2] has the same target. The assay is described as above. This is another data set of the same source.

Read-outs that look alike come from different tables or passages of the source. These are yes or no findings as the source states them, for the method shown. Binding seen in cells or lysates may run through a third protein. Some entries that bind do so weakly or less than the wild type.

Regarding “Hypoxia-inducible factor-1α (HIF-1α) (from UniProt Q16665 1-826)”, the binding result in assay [1] was “binds”.

B1: Promyelocytic leukemia zinc finger protein (PLZF) (protein, UniProt Q05516 1-673)
chain: MDLTKMGMIQLQNPSHPTGLLCKANQMRLAGTLCDVVIMVDSQEFHAHRTVLACTSKMFEILFHRNSQHYTLDFLSPKTFQQILEYAYTATLQAKAEDLDDLLYAAEILEIEYLEEQCLKMLETIQASDDNDTEATMADGGAEEEEDRKARYLKNIFISKHSSEESGYASVAGQSLPGPMVDQSPSVSTSFGLSAMSPTKAAVDSLMTIGQSLLQGTLQPPAGPEEPTLAGGGRHPGVAEVKTEMMQVDEVPSQDSPGAAESSISGGMGDKVEERGKEGPGTPTRSSVITSARELHYGREESAEQVPPPAEAGQAPTGRPEHPAPPPEKHLGIYSVLPNHKADAVLSMPSSVTSGLHVQPALAVSMDFSTYGGLLPQGFIQRELFSKLGELAVGMKSESRTIGEQCSVCGVELPDNEAVEQHRKLHSGMKTYGCELCGKRFLDSLRLRMHLLAHSAGAKAFVCDQCGAQFSKEDALETHRQTHTGTDMAVFCLLCGKRFQAQSALQQHMEVHAGVRSYICSECNRTFPSHTALKRHLRSHTGDHPYECEFCGSCFRDESTLKSHKRIHTGEKPYECNGCGKKFSLKHQLETHYRVHTGEKPFECKLCHQRSRDYSAMIKHLRTHNGASPYQCTICTEYCPSLSSMQKHMKGHKPEEIPPDWRIEKTYLYLCYV
For B1, the binding result in assay [2] was “binds”.
